Columns and labels:
[1] = system: M2-10B4 marrow stromal cells; assay: Matrix mineralization (45Ca incorporation assay, von Kossa staining); format: cell-based, mouse; conditions: M2 cells pretreated with inhibitor, then 22R+20S oxysterols; 10 days
Procedure: Von Kossa and oil red O staining—Matrix mineralization in cell monolayers was detected by silver nitrate staining as previously described. Oil red O staining for detection of adipocytes was performed as previously described.
^45Ca incorporation assay—Matrix mineralization in cell monolayers was quantified using the ^45Ca incorporation assay as previously described.
After 14 days, mineralization was identified by a von Kossa staining, which appears black. FIG. 3C is a depiction of von Kossa staining of M2 cells exposed to various conditions. […]

osteocalcin mRNA = assay: Northern blotting for osteocalcin mRNA in M2 cells; format: cell-based, mouse; conditions: M2 cells pretreated with inhibitor, then 22R+20S oxysterols; 8 days
Procedure: RNA isolation and Northern blot analysis—Following treatment of cells under appropriate experimental conditions, total RNA was isolated using the RNA isolation kit from Stratagene (La Jolla, Calif., U.S.A.). Total RNA ([…]) was run on a 1% agarose/formaldehyde gel and transferred to Duralon-UV membranes (Strategene, Calif., U.S.A.) and cross-linked with UV light. The membranes were hybridized overnight at 60 degree C. with ^32P-labeled mouse osteocalcin cDNA probe, mouse lipoprotein lipase (LPL), mouse adipocyte protein 2 (aP2) PCR-generated probes, human 28S or 18S rRNA probes obtained from Geneka Biotechnology (Montreal, Quebec, Canada) and Maxim Biotech (San Francisco, Calif., U.S.A.), respectively. The PCR products were generated using primer sets synthesized by Invitrogen (Carlsbad, Calif., U.S.A.) with the following specifications: mouse aP2 gene (accession no. M13261); sense (75-95) 5′-[…]-3′, antisense (362-383) 5′-[…]-3′, generating a PCR product of 309 base pairs. Mouse LPL (accession no. XM—134193); sense (1038-1058) 5′-[…]-3′, antisense (1816-1836) 5′-[…]-3′, generating a PCR product of 799 base pairs. […] The extent of gene induction was determined by densitometry.
After 4 and 8 days, total RNA from duplicate samples was isolated and analyzed for osteocalcin (Osc) and 28S rRNA expression by Northern blotting as described. […]

M2 cells = assay: Oxidative stress (XXO or MM-LDL) inhibition of osteoblastic differentiation of M2 cells; format: cell-based, mouse; conditions: SC-560 20 μM with SS 2.5 μM pretreatment, 48 hours
marrow stromal cells = assay: Markers of osteogenic differentiation in marrow stromal cells (ALP, osteocalcin mRNA, mineral formation); format: cell-based, mouse; conditions: SC-560 at 1-20 μM; NS-398 at 20 μM
Procedure: (A) M2 cells at confluence were pretreated for 4 hours with control vehicle (C) or 10 μM COX-1 inhibitor SC-560 (SC) in osteogenic medium as described earlier. Next, a combination of 22R and 20S oxysterols (RS, 2.5 μM each) were added in the presence or absence of SC as indicated. After 3 days, ALP activity was measured as described earlier. […] (B) M2 cells were treated as described in (A) and after 10 days matrix mineralization in cultures was quantified by a ^45Ca incorporation assay as described earlier. […] (C) M2 cells were pretreated with 20 μM SC for 4 hours, followed by the addition of RS in the presence or absence of SC as described above. After 8 days, total RNA was isolated and analyzed for osteocalcin (Osc) and […] expression by Northern blotting as previously described. […] After 3 days, ALP activity was measured as previously described. […] After 10 days, matrix mineralization in cultures was quantified using a ^45Ca incorporation assay as previously described. […]
The purpose of the study was to identify other osteogenic and anti-adipogenic oxysterols based on the chemical structure of previously identified oxysterols. […] In order to assess osteogenic differentiation of cells, one or more markers of osteogenic differentiation were measured in untreated cells and cells treated with the test oxysterols. […]

[2] = system: M2-10B4 marrow stromal cells; assay: Colorimetric alkaline phosphatase (ALP) activity assay on whole cell extracts; conditions: M2 cells pretreated with inhibitor, then 22R+20S oxysterols; 3 days

COc1ccc(-n2nc(C(F)(F)F)cc2-c2ccc(Cl)cc2)cc1 [SC-560, reference compound]
inhibition of oxysterol-induced mineralization [1]: inhibited
inhibition of oxysterol-induced osteocalcin gene expression (osteocalcin mRNA): inhibited
effect of COX-1 inhibitor on oxysterol protection against XXO and MM-LDL (alkaline phosphatase activity) (M2 cells): no longer protected
inhibition of the osteogenic effects of oxysterol combinations (marrow stromal cells): significantly inhibited
inhibition of oxysterol-induced alkaline phosphatase activity [2]: inhibited

Reference: US20090202660A1, “Agents and Methods for Osteogenic Oxysterols Inhibition of Oxidative Stress on Osteogenic Cellular Differentiation” (The Regents of the University of California, priority 2005, published 2009)
